Test results published in publication PMC7862700.
This is a selection; strong and weak results do not stand in their true shares. For part of these data: At the low end of the ranking, values are background and their order means little. The list shows a part of the results. For part of these data: The source does not settle which construct or isoform was used.

Sequences of proteins named here, by UniProt entry; tags and fusion partners are left off. A change or cut given only in a name is not applied to a line headed by its entry.
UniProt P32519: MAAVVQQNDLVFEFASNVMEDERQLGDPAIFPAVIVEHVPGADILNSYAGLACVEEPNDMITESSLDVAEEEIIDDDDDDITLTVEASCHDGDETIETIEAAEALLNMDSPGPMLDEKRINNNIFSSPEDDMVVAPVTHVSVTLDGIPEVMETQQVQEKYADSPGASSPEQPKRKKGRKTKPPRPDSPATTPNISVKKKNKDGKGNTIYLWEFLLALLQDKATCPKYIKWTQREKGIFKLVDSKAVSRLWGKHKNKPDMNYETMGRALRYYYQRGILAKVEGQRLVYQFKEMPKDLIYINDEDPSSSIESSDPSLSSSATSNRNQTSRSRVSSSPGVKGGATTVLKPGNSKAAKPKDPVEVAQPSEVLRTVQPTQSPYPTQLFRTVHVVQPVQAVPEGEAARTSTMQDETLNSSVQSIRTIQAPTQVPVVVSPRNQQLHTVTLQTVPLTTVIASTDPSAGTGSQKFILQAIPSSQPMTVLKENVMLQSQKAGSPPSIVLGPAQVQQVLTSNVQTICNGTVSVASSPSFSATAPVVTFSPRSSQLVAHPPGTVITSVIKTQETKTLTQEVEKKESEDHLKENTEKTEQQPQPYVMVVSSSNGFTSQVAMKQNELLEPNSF
UniProt P50549: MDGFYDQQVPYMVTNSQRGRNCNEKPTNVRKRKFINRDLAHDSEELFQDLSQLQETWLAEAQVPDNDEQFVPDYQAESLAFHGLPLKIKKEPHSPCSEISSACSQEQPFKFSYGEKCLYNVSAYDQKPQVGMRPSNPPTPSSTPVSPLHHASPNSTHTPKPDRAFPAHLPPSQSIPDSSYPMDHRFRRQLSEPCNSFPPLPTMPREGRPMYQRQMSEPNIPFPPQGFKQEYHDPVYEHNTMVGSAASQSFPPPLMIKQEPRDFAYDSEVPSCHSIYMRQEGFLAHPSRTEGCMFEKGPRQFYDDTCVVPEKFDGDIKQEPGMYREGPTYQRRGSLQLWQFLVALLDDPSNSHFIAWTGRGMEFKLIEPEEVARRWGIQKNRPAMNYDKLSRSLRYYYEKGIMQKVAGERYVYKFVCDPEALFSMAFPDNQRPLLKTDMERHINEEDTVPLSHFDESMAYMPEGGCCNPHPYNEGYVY

Key:
Experiment in all cases: DAPPL (digital affinity profiling via proximity ligation, sequencing)
Conditions in all cases: 10 mM Tris-HCl pH 7.5, 50 mM NaCl, 1 mM DTT, 4% glycerol, room temperature, 30 min; GST-TFs on glutathione beads, 16-mer random dsDNA library, 0.1% …; high values mean tight binding; double strand, one strand shown; scale: fold enrichment (6-mer frequency, TF over GST control)
[1] = molecular target: T1, ERG (UniProt P11308)
T1 sequence: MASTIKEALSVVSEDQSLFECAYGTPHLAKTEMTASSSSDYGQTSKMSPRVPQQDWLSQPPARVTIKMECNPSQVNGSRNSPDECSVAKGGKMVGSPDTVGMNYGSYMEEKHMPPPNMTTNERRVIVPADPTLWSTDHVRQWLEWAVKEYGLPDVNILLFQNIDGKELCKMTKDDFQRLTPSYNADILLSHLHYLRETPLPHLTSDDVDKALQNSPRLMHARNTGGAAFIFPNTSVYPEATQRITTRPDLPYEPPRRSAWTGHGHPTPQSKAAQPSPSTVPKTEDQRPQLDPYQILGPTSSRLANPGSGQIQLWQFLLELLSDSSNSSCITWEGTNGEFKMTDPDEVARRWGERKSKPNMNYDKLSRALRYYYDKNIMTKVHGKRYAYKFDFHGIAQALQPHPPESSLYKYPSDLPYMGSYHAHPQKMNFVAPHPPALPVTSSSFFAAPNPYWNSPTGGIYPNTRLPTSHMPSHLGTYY

[2] = molecular target: ELF1 (UniProt P32519)
[3] = molecular target: T2, ELK4 (UniProt P28324-2)
T2 sequence: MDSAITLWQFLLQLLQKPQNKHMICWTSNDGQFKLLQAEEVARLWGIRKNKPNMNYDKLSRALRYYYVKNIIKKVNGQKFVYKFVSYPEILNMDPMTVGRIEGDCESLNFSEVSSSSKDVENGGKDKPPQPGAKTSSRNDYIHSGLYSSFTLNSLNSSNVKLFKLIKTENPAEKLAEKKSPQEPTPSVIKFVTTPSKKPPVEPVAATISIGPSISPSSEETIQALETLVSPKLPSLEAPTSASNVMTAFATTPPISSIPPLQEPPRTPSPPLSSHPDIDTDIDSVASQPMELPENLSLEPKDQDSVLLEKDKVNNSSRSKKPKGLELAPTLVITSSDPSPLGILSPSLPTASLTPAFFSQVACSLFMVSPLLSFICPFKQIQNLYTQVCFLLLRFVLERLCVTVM

[4] = molecular target: T3, ETV4 (UniProt P43268)
T3 sequence: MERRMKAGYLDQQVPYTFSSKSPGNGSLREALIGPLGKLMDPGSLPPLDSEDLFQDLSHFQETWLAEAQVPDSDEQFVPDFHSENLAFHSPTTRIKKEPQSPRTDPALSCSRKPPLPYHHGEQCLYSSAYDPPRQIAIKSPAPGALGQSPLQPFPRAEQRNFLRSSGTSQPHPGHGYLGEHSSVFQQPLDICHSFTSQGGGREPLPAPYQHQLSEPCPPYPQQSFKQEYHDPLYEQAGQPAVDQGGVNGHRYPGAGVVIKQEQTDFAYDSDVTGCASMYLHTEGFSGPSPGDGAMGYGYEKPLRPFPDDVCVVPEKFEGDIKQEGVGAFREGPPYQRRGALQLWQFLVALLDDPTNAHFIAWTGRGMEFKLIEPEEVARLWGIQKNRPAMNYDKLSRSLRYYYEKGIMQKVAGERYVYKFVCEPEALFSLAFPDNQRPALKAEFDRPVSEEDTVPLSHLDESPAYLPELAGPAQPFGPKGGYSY

[5] = molecular target: ETV1 (UniProt P50549)
[6] = molecular target: T4, ERF (UniProt P50548)
T4 sequence: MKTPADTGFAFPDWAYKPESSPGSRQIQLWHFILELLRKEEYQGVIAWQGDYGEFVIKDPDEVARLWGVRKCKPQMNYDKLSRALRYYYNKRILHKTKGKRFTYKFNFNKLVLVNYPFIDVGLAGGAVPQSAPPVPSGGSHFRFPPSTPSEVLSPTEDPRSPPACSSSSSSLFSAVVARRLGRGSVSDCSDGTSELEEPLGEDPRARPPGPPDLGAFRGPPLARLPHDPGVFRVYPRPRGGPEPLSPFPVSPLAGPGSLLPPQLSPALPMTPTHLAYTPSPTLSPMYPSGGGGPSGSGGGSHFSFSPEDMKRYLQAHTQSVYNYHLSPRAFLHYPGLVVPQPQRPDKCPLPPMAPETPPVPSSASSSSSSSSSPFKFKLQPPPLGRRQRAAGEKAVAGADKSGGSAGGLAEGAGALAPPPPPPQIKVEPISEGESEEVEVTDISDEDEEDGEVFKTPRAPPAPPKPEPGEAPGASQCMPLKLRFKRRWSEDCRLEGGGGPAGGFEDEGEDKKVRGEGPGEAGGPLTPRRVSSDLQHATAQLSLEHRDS

Sequence | binding signal [1] | binding signal [2] | binding signal [3] | binding signal [4] | binding signal [5] | binding signal [6]
GACTCA | 0.948 | 0.936 | 0.868 | 0.986 | 0.907 | 0.906
AGTCCA | 0.737 | 0.689 | 0.693 | 0.716 | 0.708 | 0.614
GTGGGG | 0.57 | 0.573 | 0.633 | 0.595 | 0.563 | 0.623
TGAGAA | 0.747 | 0.744 | 0.792 | 0.643 | 0.685 | 0.628
GGGGAG | 0.436 | 0.416 | 0.434 | 0.395 | 0.424 | 0.458
GTTGGA | 0.468 | 0.47 | 0.406 | 0.443 | 0.467 | 0.501
GAAGAC | 0.827 | 0.87 | 0.822 | 0.858 | 0.874 | 0.931
CAAGTC | 0.847 | 0.871 | 0.957 | 0.842 | 0.827 | 0.767
GCAGGA | 0.878 | 0.796 | 0.753 | 0.848 | 0.851 | 0.733
GCCAAG | 0.819 | 0.881 | 0.963 | 0.876 | 0.767 | 0.946
AGGCGC | 0.557 | 0.558 | 0.595 | 0.583 | 0.541 | 0.609
ACCAGA | 0.879 | 0.981 | 0.892 | 0.856 | 0.905 | 0.82
GAGCCC | 0.712 | 0.789 | 0.75 | 0.758 | 0.714 | 0.781
ACACAG | 0.948 | 1.05 | 1.12 | 0.929 | 0.987 | 1.04
ACGGGG | 0.672 | 0.672 | 0.67 | 0.72 | 0.636 | 0.719
GATTGA | 0.995 | 0.934 | 0.901 | 0.944 | 0.956 | 0.984
AACCAG | 0.835 | 0.882 | 0.897 | 0.811 | 0.831 | 0.827
GCGGGA | 0.38 | 0.35 | 0.364 | 0.347 | 0.386 | 0.347
GAAGGG | 0.827 | 0.773 | 0.822 | 0.799 | 0.821 | 0.78
GGTAAG | 0.771 | 0.725 | 0.777 | 0.711 | 0.802 | 0.818
AGTCTG | 0.626 | 0.602 | 0.657 | 0.606 | 0.608 | 0.593
GGCTGT | 0.806 | 0.839 | 0.818 | 0.724 | 0.747 | 0.876
GCGGAC | 0.711 | 0.704 | 0.656 | 0.656 | 0.712 | 0.635

Sequence | binding signal [1] | binding signal [2] | binding signal [3] | binding signal [4] | binding signal [5] | binding signal [6]
AGGCGG | 0.289 | 0.237 | 0.24 | 0.241 | 0.26 | 0.235
GGGAGT | 0.26 | 0.228 | 0.217 | 0.218 | 0.252 | 0.24
AGTTGT | 0.754 | 0.783 | 0.946 | 0.83 | 0.739 | 0.688
GGGCCC | 0.864 | 0.791 | 0.883 | 0.742 | 0.816 | 0.675
AGGAGG | 0.235 | 0.214 | 0.191 | 0.224 | 0.217 | 0.221
ACGGGA | 0.574 | 0.501 | 0.543 | 0.525 | 0.524 | 0.491
CGGTCG | 0.414 | 0.36 | 0.384 | 0.389 | 0.409 | 0.416
AAGAGA | 0.865 | 0.886 | 0.758 | 0.773 | 0.815 | 0.867
CTCGGA | 0.841 | 0.846 | 0.807 | 0.797 | 0.9 | 0.848
GGCATG | 0.887 | 0.854 | 0.915 | 0.906 | 0.945 | 0.842
GTGATC | 0.78 | 0.745 | 0.814 | 0.763 | 0.837 | 0.802
GACAGG | 0.634 | 0.585 | 0.585 | 0.591 | 0.556 | 0.558
CGTGGG | 0.373 | 0.349 | 0.4 | 0.358 | 0.386 | 0.405
GTAGGT | 0.889 | 0.818 | 0.698 | 0.794 | 0.773 | 0.902
AGTTGG | 0.49 | 0.49 | 0.451 | 0.465 | 0.451 | 0.472
CGTAGT | 0.758 | 0.841 | 0.865 | 0.793 | 0.766 | 0.803
CGGCCG | 0.877 | 0.834 | 0.958 | 0.926 | 0.898 | 0.751
GCCATG | 0.784 | 0.783 | 0.913 | 0.836 | 0.799 | 0.822
CGGAGC | 0.415 | 0.373 | 0.398 | 0.38 | 0.398 | 0.433
CGAGGA | 0.655 | 0.626 | 0.513 | 0.612 | 0.693 | 0.639
AGACGA | 0.659 | 0.694 | 0.697 | 0.69 | 0.759 | 0.703
CAGAGG | 0.662 | 0.638 | 0.623 | 0.633 | 0.617 | 0.652
AGGTCG | 0.5 | 0.454 | 0.52 | 0.524 | 0.538 | 0.526

Some of the entries so far, in markdown:

| Sequence | binding signal [1] | binding signal [2] | binding signal [3] | binding signal [4] | binding signal [5] | binding signal [6] |
| --- | --- | --- | --- | --- | --- | --- |
| CGGAGC | 0.415 | 0.373 | 0.398 | 0.38 | 0.398 | 0.433 |
| CGAGGA | 0.655 | 0.626 | 0.513 | 0.612 | 0.693 | 0.639 |
